## Results of single-concentration screens

The chains behind the UniProt entries cited, without tags or fusion partners.
UniProt P9WFT3, whole entry: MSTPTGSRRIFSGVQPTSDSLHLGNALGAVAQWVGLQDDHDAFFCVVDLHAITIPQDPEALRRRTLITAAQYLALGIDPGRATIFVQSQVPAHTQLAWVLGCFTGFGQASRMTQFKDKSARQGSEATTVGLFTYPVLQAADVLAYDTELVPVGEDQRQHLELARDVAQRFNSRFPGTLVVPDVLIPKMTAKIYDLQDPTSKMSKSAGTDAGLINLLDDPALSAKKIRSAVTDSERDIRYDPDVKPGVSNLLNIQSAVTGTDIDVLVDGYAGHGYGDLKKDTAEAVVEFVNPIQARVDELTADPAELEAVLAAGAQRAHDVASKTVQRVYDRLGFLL

Measurements from “University of Dundee, Small-Polar-MMV Screening Library” (2021), ChEMBL document CHEMBL3988442.

Results are given as percent effect. The record does not define 0% and 100%; most values in the screen are far below 50% and negative numbers occur (in some assays of this library far below -100). Compounds were drawn at random from those tested, without regard to their results.

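Enzyme assay of tryptophanyl-tRNA synthetase; the read-out is not stated. Target: Tryptophan-tRNA ligase, Mycobacterium tuberculosis (UniProt P9WFT3). Concentration: 10 µM. Direction is not recorded; retested compounds ran higher, which suggests that high means inhibition. Of about 65,000 compounds tested this way, about 64 (0.098%) reached 50% or more in at least one test.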

Result for CSCCNc1ccc(C(=O)N(C)Cc2ccc3ccccc3n2)cn1 was -0.6571%.
Result for O=C(CCN1CCCCO1)N1CCC(CO)(Cc2ccccc2)CC1 was -1.232%.
Result for Cc1cc(NC(=O)CN2CCCC2c2noc(C3CC3)n2)n(C)n1 (stereo not given) was -8.403%.
Result for COCC1c2nnn(C)c2CCN1C(=O)Cc1ccc2c(c1)OCO2 (stereo not given) was 10.43%.
Result for CN(C)C(=O)CNC(=O)c1ccn(-c2ccc3ccccn23)n1 was -3.836%.
Result for OCc1ccc(Cl)c(NCc2cccnc2)c1 was 4.767%.
Result for c1cc(CN2CCC(CCn3cccn3)CC2)cc(Cn2cccn2)c1 was 0.3623%.
Result for CC(=O)c1cccc(OCCCC(=O)N(C)CC(N)=O)c1 was -1.675%.
Result for NC(=O)CCn1ccc(NCc2cc(F)ccc2Br)n1 was 3.043%.
Result for CC1(C)[C@H]2CC=C(CN3CCCn4nc(CNS(C)(=O)=O)cc4C3)[C@@H]1C2 was -2.348%.
Result for CC(=O)N1CCc2[nH]c(=O)ccc2C1 was 4.917%.
Result for Cc1nc(CN(C)C2CCN(Cc3cnc(C)s3)C2)no1 (stereo not given) was 3.191%.
Result for Cc1ccc(CNC(=O)CCNS(C)(=O)=O)cc1 was -2.3%.
Result for Cc1cc(NC(=O)N2CCN(C)CC2C)n(Cc2ccccc2)n1 (stereo not given) was -3.616%.
Result for Cc1cc(C(=O)NCC(O)c2ccc(Cl)s2)c(C)o1 (stereo not given) was 2.614%.
Result for Cc1nn(C)c(C)c1CNCc1ccnc(N2CCOCC2)c1 was 1.852%.
Result for COCc1noc(-c2ccc(N3CCCC3c3ccc(F)cc3)nc2)n1 (stereo not given) was -0.486%.
Result for Cn1c(=O)ccn(CC(=O)Nc2cccnc2)c1=O was 3.631%.
Result for O=C(CCc1nc(-c2ccccn2)no1)N1CCCC1c1ccsc1 (stereo not given) was 2.522%.
Result for Fc1ccc(Cn2ncc3c2CN(c2noc(C4CC4)n2)C3)cc1 was -5.255%.
Result for CCc1ccc(S(=O)(=O)N2CC3(COC(C)(C)OC3)C2)s1 was 20.9%.
Result for COc1ccc(OCCN(C)C(=O)NC(C)c2nncn2C)cc1 (stereo not given) was -0.5912%.
Result for CCn1nc(C)c2c1cnn2CCNS(=O)(=O)CC was 2.037%.
Result for CC(C)S(=O)(=O)NCC1CCCN(C(=O)c2ccc(F)cc2)C1 (stereo not given) was 1.018%.
Result for CCC(=O)N1CCC2(COCc3c(C)nc(N(C)C)nc32)C1 (stereo not given) was 8.255%.
Result for Cc1nc(N2C[C@@H](CN3CCCCC3)[C@@H](CO)C2)c2sccc2n1 was -1.257%.
Result for N#Cc1ccc(CN2CCCC(Cn3cncn3)C2)c(F)c1 (stereo not given) was 6.262%.
Result for CN1CCC/C1=N\S(=O)(=O)c1ccc(NC(=O)Cc2cccs2)cc1 was 8.915%.

For reference, 3 entries once more:

Compound	Percent Effect
CC(C)S(=O)(=O)NCC1CCCN(C(=O)c2ccc(F)cc2)C1 (stereo not given)	1.018
Cc1cc(NC(=O)N2CCN(C)CC2C)n(Cc2ccccc2)n1 (stereo not given)	-3.616
CC1(C)[C@H]2CC=C(CN3CCCn4nc(CNS(C)(=O)=O)cc4C3)[C@@H]1C2	-2.348